Test results reported in PubChem BioAssay AID1671190 (National Center for Advancing Translational Sciences (NCATS), 2021).
Values joined by “and” are separate entries in the source; they are usually repeats but may differ in a detail not shown here. Equal entries are not always repeated. Among all 580,000 compounds or so, about 6,100 (1.1%) were called active. Inconclusive results, whose numbers are uncertain, are shown with a selection of clear calls. Calls come from the whole dose curve; as a rule, active = well fitted inhibition curve with a large enough effect; inconclusive = small, poorly fitted or top-dose-only effect, or another doubt; inactive = no such curve, though single readings can be large or run the other way. Where the call is inconclusive, the potency comes from a doubtful curve fit.

Protein sequences, listed by entry. Tags and fused reporters are not part of them.
UniProt P18054, whole entry, looked up: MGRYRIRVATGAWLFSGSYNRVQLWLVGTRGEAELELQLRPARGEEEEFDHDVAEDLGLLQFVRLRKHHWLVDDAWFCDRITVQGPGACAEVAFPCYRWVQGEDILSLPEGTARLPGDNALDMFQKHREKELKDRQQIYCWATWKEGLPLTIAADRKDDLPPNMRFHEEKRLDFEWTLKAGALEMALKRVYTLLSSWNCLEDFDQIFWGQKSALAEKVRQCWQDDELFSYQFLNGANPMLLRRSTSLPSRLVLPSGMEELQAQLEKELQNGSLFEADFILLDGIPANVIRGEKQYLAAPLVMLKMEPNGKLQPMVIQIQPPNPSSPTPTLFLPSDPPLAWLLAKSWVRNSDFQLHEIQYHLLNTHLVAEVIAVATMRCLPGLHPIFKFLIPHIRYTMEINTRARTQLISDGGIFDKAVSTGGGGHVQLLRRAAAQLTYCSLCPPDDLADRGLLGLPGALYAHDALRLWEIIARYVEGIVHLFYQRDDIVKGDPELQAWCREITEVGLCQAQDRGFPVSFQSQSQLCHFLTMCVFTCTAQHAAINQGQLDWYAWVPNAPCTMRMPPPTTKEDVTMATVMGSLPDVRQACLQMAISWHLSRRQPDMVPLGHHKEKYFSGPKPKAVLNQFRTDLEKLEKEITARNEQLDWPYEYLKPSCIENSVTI

molecular target: Polyunsaturated fatty acid lipoxygenase ALOX12 (Homo sapiens) (UniProt P18054); assay: Primary qHTS assay for inhibitors of human arachidonate 12S-lipoxygenase (ALOX12): Round 2; conditions: purified 12hLO, xylenol orange hydroperoxide absorbance; activity change, negative = inhibition: at 108 µM (top of the series)
Outline: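 Purified human 12hLO at 150 nM in 25 mM Hepes, 0.01% Triton X-100, pH 7.0, preincubated 15 min at room temperature with compound. Reaction started with 40 uM arachidonic acid, 30 min at room temperature. Hydroperoxide measured by Fe-xylenol orange, 573/405 nm absorbance ratio.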
% is set by controls: 0 for no effect and ±100 for the full control effect; potency is the fitted concentration of half-maximal effect.

| Compound | Potency | activity change, negative = inhibition |
| --- | --- | --- |
| COC(=O)[C@@H]1[C@@H](CO)[C@@H]2Cn3c(cccc3=O)[C@H]1N2Cc1ccccc1OC | inconclusive: 56.2 µM [inhibitor, partial curve, poor fit] | – |
| CCC(C)N1C(=O)/C(=C\c2cnc(N(C)C)nc2)C(=O)NC1=S (stereo not drawn) | inconclusive: 50.1 µM [inhibitor, partial curve, poor fit] | – |
| COc1ccc(OC)c(-n2c(O)c(/C=C3\C(C)=Nc4ccccc43)c(=O)[nH]c2=O)c1 | inconclusive: 12.6 µM [inhibitor, partial curve, poor fit] | – |
| COc1ccccc1CNC(=O)[C@H]1CN2CC[C@H]1C[C@@H]2Cn1cc(CCO)nn1 | inactive | – |
| CC(=O)Nc1ccc(N=Cc2c(O)n(Cc3ccco3)c(=O)[nH]c2=O)cc1 | inconclusive: 112 µM [inhibitor, partial curve, poor fit] | – |
| c1ccc(C2CNC2)cc1 | – | inactive: 3.63% [at 12.5 µM] |
| CC1=NNC(=O)C1Br (stereo not drawn) | inconclusive: 22.4 µM [inhibitor, full curve, poor fit] | – |
| CN1CCN(/N=C/c2c(O)n(CCC3=CCCCC3)c(=S)[nH]c2=O)CC1 | inconclusive: 50.1 µM [inhibitor, partial curve, poor fit] | – |
| Clc1ccc2sc(C3CCNCC3)nc2c1 | inconclusive: 100 µM [inhibitor, single point] | – |
| c1ccc(CCNC2CCCCCCC2)cc1 | inconclusive: 20 µM [inhibitor, partial curve] | – |
| C/C=C1/CN2CC[C@]34C(=C(C=O)[C@H]1C[C@@H]23)Nc1ccccc14 | inconclusive: 44.7 µM [inhibitor, partial curve, poor fit] | – |
| Cc1nc(-c2ccc(C(F)(F)F)cc2)cc([C@H]2CN3CC[C@H]2C[C@@H]3CNC(=O)C(C)(C)C)n1 | inactive | – |
| COc1ccc(CC2C(=O)NC(=O)NC2=O)c(OC)c1 | inconclusive: 5.62 µM [inhibitor, full curve, poor fit] | – |
| Cn1cccc1/C=C1/C(=O)NC(=S)N(Cc2ccc(F)cc2)C1=O | active: 10 µM | – |
| COc1ccc2ccccc2c1CNCCc1c[nH]c2ccccc12 | inconclusive: 100 µM [inhibitor, partial curve, poor fit] | – |
| CC(=O)c1cc(C(C)=O)c(C)[n+](C)c1C | inconclusive: 89.1 µM [inhibitor, partial curve, poor fit] | – |
| CCC(C)N1CCN(Cc2ccc(OC)c(Br)c2)CC1 (stereo not drawn) | inconclusive: 0.708 µM [inhibitor, full curve] | – |
| CCOC(=O)CC(NC(=O)C(Cc1ccc(N(CCCl)CCCl)cc1)NC(C)=O)C(=O)OCC (stereo not drawn) | inconclusive: 2.51 µM [inhibitor, full curve, poor fit] | – |
| Cc1cc(-n2c(/C=C/c3cccs3)nc3ccccc3c2=O)ccc1Br | inactive | – |
| COc1ccc(OC)c(S(=O)(=O)NC[C@H]2C[C@@H]3CCN2C[C@@H]3c2cc(-c3ccccc3OC)nn2C)c1 | inactive | – |
| Clc1cccc(-c2ccc(CNC3CN4CCC3CC4)o2)c1 (stereo not drawn) | inconclusive: 17.8 µM [inhibitor, partial curve, poor fit] | – |
| COc1ccc(CC2C(=O)N(c3ccccc3)C(=O)N(c3ccccc3)C2=O)c(OC)c1 | inconclusive: 79.4 µM [inhibitor, partial curve, poor fit] | – |

Among those listed so far, two have fluorine:

| Compound | Potency | activity change, negative = inhibition |
| --- | --- | --- |
| Cc1nc(-c2ccc(C(F)(F)F)cc2)cc([C@H]2CN3CC[C@H]2C[C@@H]3CNC(=O)C(C)(C)C)n1 | inactive | – |
| Cn1cccc1/C=C1/C(=O)NC(=S)N(Cc2ccc(F)cc2)C1=O | active: 10 µM | – |

Remaining list, next part:

| Compound | Potency | activity change, negative = inhibition |
| --- | --- | --- |
| N[C@H](CCP(=O)(O)O)C(=O)O | inconclusive: 7.94 µM [inhibitor, full curve, poor fit] and active: 3.55 µM | – |
| CCc1nnc2ccc(N3CCN(CC)CC3)nn12 | inactive | – |
| CC(C(N)=O)N1CCC2(CC1)C(=O)N(C)c1ccccc12 (stereo not drawn) | inconclusive: 22.4 µM [inhibitor, full curve, poor fit] | – |
| COC(=O)C1=C(c2cc3ccccc3s2)C[C@@H]2CC[C@H]1N2C(=O)NCC1CC1 | inconclusive: 25.1 µM [inhibitor, partial curve, poor fit] | – |
| COc1ccc(CCNCc2ccc(Br)cc2)cc1 | active: 22.4 µM | – |
| O=C(O)CCC(CP(=O)(O)O)C(=O)O (stereo not drawn) | inconclusive: 35.5 µM [inhibitor, partial curve, poor fit] | – |
| O=C(Cc1cccc(F)c1)N1[C@H]2CC[C@@H]1c1cnc(-c3ccccc3)nc1C2 | inconclusive: 0.708 µM [inhibitor, full curve, poor fit] | – |
| Cc1ccc(-n2c(=S)[nH]c3ccc(C)cc3c2=O)cc1 | inactive | – |
| Cc1noc(-c2ccc(N3CC4CC(C3)c3cccc(=O)n3C4)nc2)n1 (stereo not drawn) | inactive | – |
| CC1CCC(NCCc2ccc3c(c2)OCO3)CC1 (stereo not drawn) | inconclusive: 1.12 µM [inhibitor, full curve] | – |
| O=C1NC(=O)C(=Cc2ccc(-c3ccc(F)cc3O)o2)C(=O)N1 | inconclusive: 44.7 µM [inhibitor, partial curve, poor fit] | – |
| CCN(CC)CCCCN1c2ccccc2Oc2ccc(Cl)cc21 | inactive | – |
| CN1C(=O)C(=Cc2ccc(SC3CCCCC3)o2)C(=O)N(C)C1=O | inconclusive: 35.5 µM [inhibitor, partial curve] | – |
| COC(=O)C1=C(c2cccc(OCc3ccccc3)c2)C[C@@H]2CC[C@H]1N2C(=O)NC1CCN(Cc2ccccc2)CC1 | inactive | – |
| Cc1ccc(Cn2cc(C=O)c(-c3ccc(C)cc3)n2)cc1 | inconclusive: 44.7 µM [inhibitor, partial curve, poor fit] | – |
| COc1cc(CNCCc2c[nH]c3ccccc23)cc(OC)c1 | inconclusive: 1.58 µM [inhibitor, full curve] | – |
| CCN(CC)c1ccc(N=Cc2c(O)n(CCc3ccc(OC)c(OC)c3)c(=O)[nH]c2=O)cc1 | inactive | – |
| CN(C)c1nc(-c2ccccc2)[n+](C)s1 | inconclusive: 25.1 µM [inhibitor, partial curve, poor fit] | – |
| CC1CN=C(NCCc2ccccc2)S1 (stereo not drawn) | inactive | – |
| CCN(CC)C1=NC(=[N+](CC)CC)c2ccccc21 | inactive | – |
| Cc1cc(/C=C2/C(=O)NC(=O)N(c3ccccc3)C2=O)c(C)n1-c1ccc(F)cc1 | inactive | – |
